Data from the supplement of paper PMC10849652.
The other results are listed elsewhere or left out.

By UniProt entry, the sequences of proteins in these tests, tags left out. Where a name states a change or a piece, a line headed by the entry shows the natural chain unless it says otherwise.
UniProt B5MCY1: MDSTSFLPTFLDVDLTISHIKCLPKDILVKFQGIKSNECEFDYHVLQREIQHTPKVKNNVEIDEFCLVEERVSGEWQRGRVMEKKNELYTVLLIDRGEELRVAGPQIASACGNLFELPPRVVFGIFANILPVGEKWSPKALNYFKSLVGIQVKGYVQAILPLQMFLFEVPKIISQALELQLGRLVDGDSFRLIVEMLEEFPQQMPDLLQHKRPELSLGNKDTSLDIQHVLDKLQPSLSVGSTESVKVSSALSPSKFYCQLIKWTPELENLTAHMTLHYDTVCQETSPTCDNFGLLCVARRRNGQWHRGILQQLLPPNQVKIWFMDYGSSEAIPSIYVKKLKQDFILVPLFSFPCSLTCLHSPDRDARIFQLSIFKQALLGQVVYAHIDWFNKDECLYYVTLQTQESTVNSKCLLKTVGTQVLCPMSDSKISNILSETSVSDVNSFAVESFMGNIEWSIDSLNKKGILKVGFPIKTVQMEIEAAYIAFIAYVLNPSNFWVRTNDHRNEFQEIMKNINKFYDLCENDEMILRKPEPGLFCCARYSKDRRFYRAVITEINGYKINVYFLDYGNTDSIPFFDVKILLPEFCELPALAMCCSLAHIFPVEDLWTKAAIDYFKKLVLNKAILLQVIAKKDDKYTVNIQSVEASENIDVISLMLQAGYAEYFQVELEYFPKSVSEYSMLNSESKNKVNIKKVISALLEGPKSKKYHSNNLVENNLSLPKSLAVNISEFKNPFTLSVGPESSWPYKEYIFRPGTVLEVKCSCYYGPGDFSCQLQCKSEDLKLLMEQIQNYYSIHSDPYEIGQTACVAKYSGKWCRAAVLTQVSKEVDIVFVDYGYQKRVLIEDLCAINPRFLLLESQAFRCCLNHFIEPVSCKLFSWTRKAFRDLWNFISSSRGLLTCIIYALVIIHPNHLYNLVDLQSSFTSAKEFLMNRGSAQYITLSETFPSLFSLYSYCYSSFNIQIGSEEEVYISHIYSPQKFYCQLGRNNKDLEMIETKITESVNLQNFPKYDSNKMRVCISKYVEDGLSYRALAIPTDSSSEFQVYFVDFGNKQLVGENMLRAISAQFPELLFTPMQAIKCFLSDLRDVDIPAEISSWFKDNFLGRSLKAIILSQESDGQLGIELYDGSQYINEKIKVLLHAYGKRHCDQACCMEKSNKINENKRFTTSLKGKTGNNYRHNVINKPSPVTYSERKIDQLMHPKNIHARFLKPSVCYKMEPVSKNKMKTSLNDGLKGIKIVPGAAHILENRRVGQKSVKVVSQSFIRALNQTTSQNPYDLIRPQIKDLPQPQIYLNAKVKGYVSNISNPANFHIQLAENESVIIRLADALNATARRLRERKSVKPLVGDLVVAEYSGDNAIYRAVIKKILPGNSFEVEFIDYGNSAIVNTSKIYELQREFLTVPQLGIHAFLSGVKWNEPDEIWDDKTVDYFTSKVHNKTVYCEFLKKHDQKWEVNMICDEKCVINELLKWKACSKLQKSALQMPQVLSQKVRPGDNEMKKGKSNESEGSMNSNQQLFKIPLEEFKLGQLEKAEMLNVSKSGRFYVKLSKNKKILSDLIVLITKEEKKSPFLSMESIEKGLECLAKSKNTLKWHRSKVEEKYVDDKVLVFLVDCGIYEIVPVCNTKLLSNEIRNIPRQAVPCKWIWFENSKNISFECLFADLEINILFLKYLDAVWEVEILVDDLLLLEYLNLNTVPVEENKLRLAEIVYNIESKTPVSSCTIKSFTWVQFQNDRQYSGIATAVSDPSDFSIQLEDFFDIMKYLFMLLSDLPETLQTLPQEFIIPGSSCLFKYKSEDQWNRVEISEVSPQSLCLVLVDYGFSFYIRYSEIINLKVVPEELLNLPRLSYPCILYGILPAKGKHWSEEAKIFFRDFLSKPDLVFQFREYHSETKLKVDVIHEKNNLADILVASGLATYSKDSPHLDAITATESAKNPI
UniProt P20061: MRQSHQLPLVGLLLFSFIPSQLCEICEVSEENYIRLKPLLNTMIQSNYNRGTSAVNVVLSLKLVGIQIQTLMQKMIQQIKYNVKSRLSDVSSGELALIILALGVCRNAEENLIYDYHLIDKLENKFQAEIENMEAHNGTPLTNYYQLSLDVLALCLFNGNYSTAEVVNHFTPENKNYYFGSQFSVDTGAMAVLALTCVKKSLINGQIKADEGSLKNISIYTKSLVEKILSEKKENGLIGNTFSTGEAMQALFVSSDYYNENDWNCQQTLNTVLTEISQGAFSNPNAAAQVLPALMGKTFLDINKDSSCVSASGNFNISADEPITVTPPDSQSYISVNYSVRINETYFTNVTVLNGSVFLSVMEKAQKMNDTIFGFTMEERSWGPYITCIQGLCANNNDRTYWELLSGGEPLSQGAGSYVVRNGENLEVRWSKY
UniProt Q15170: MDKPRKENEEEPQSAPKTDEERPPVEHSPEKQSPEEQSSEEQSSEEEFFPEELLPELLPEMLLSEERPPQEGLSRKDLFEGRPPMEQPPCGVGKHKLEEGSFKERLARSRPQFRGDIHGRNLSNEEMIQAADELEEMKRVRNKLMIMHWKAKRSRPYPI
UniProt Q13428: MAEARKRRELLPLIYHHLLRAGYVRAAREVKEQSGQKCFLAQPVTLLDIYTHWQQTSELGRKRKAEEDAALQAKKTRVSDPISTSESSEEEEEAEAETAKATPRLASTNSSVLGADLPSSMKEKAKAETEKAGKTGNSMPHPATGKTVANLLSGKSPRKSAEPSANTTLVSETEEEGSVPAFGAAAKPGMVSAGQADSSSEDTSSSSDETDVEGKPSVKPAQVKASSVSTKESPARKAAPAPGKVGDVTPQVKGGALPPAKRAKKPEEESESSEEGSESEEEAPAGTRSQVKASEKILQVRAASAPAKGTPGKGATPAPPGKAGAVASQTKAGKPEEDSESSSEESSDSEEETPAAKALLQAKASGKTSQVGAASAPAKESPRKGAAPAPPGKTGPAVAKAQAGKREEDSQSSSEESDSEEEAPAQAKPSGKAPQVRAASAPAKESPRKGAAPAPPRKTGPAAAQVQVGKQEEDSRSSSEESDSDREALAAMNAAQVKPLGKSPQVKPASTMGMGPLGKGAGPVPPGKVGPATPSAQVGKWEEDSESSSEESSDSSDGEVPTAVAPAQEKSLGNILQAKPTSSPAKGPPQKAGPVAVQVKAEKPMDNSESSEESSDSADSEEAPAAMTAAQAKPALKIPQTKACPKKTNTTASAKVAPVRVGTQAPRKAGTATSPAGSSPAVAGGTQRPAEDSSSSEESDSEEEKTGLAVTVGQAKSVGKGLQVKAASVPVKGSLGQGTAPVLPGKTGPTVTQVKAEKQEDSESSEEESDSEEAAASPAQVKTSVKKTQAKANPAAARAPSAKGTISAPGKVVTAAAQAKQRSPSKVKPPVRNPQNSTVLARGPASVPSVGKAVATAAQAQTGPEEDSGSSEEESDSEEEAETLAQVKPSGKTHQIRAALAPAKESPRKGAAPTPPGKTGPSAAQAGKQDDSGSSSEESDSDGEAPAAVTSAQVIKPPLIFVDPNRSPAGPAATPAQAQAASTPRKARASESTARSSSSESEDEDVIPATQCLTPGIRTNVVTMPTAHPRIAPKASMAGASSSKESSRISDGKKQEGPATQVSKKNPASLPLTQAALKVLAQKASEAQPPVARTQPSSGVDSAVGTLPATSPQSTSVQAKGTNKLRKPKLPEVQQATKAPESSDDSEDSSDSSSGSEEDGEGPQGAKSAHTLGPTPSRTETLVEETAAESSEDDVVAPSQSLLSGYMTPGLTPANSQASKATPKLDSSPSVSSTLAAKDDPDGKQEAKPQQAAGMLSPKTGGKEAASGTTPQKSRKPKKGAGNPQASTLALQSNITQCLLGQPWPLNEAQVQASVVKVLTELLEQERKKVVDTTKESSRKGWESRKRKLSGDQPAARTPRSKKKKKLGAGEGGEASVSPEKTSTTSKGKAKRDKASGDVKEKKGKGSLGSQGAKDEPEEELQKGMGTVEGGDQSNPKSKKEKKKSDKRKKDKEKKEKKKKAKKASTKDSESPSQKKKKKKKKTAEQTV
UniProt Q14188: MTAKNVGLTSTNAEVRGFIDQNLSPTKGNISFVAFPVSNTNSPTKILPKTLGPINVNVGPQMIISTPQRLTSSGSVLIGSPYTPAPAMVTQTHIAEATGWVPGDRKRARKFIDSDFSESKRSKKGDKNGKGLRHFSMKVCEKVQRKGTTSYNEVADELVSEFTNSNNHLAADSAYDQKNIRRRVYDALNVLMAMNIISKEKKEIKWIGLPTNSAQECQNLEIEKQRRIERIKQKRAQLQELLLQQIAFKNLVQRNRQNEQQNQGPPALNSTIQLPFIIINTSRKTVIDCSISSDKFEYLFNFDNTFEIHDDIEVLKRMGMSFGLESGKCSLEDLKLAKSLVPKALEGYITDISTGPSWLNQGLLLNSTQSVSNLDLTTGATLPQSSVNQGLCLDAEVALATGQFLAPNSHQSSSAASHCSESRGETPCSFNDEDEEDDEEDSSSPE
UniProt Q15562, whole entry, looked up: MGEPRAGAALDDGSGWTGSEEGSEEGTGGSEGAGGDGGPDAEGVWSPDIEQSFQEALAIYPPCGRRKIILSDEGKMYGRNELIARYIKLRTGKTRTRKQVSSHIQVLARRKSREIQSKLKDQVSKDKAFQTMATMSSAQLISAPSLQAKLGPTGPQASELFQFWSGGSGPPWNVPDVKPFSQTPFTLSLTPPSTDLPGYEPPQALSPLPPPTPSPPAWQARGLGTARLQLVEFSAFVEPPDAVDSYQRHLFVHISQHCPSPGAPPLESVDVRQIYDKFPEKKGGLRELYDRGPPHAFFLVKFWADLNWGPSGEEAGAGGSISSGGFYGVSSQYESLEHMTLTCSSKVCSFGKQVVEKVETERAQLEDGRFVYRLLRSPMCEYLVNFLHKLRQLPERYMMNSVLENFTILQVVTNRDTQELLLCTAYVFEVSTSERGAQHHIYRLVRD
UniProt Q9UK61: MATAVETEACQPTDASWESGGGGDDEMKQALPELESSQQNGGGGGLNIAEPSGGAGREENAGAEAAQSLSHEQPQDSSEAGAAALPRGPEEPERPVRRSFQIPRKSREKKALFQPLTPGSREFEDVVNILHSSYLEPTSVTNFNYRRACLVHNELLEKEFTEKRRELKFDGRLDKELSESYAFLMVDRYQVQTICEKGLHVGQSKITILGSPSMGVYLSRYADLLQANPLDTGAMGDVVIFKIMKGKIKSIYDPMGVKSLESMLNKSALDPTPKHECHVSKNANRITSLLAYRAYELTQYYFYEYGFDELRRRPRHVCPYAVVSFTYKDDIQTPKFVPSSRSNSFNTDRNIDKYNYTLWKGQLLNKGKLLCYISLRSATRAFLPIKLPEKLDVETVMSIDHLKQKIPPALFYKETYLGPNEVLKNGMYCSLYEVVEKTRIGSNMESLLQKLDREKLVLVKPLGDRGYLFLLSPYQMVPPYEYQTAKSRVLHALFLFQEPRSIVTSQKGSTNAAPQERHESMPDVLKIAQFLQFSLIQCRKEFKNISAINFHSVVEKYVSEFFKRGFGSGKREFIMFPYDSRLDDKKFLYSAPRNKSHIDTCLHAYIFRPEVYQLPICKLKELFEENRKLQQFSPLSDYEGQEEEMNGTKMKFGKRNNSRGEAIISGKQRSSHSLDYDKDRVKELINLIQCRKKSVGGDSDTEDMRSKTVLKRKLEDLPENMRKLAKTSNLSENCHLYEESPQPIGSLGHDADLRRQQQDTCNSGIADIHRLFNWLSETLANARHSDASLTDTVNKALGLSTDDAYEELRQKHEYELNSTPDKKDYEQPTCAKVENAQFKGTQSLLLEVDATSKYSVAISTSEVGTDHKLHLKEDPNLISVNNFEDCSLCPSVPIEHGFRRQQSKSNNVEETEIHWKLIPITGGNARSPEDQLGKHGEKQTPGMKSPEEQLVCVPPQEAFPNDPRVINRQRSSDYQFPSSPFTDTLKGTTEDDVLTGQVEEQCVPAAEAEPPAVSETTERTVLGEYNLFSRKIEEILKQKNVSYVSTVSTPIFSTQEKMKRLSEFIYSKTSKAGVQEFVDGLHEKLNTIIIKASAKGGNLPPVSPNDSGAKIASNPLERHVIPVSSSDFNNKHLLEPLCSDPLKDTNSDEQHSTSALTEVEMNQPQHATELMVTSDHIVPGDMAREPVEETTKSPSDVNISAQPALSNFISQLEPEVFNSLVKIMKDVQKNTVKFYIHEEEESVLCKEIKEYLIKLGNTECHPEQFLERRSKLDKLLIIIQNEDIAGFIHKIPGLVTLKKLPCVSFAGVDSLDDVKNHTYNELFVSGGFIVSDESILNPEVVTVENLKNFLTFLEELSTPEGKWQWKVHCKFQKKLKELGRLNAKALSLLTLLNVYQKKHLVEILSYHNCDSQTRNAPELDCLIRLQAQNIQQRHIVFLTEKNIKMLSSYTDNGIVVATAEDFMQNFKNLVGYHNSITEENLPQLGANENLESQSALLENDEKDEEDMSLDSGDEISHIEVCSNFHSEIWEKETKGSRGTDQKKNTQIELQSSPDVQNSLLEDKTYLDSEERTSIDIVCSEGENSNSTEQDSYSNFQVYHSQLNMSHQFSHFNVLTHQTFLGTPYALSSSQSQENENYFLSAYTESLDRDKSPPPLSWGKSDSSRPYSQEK

Legend:
Assay in all cases: log2 fold change, soluble protein after heating vs DMSO (PISA); higher = thermal stabilisation; K562 lysate, 10 uM; active = over 0.2 and 3.5 SD of the protein, either way, in both replicates (recomputed)
Tubastatin A = compound: CN1CCc2c(c3ccccc3n2Cc2ccc(C(=O)NO)cc2)C1 [Tubastatin A]
How it was run: (§1)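 Log-two fold change in thermal stability relative to solvent controls is reported from duplicates. For each sample, crude K562 extract from dounce-homogenised pellets in PBS pH 7.4 with 1 mM MgCl2, at 1 mg/mL protein, was treated with 10 μM compound for 30 min. Aliquots heated for 3 min across 48°C-58°C were pooled, brought to 0.5% NP-40 at 4°C and cleared at 21,000xg for 90 min. The supernatant was quantified by TMTpro 16plex LC-MS/MS with channel sums equalised.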

[1] = compound: CNC(=O)C1=CC=CC=C1NC2=NC(=NC=C2Cl)NC3=C(C=C(C=C3)N4CCOCC4)OC
How it was run: as §1

defactinib = compound: CNC(=O)c1ccc(Nc2ncc(C(F)(F)F)c(NCc3nccnc3N(C)S(C)(=O)=O)n2)cc1 [defactinib]
How it was run: as §1

[2] = compound: CNc1nc(-c2ccc3c(N)n[nH]c3c2)cc(N2C[C@@H](C(=O)NC3CCCCC3)CC[C@H]2C)n1
How it was run: as §1

encorafenib = compound: COC(=O)N[C@@H](C)CNc1nccc(-c2cn(C(C)C)nc2-c2cc(Cl)cc(NS(C)(=O)=O)c2F)n1 [encorafenib]
How it was run: as §1

[3] = compound: COC(=O)[C@H](CCSC)NC(=O)C1=C(C=C(C=C1)NC[C@H](CS)N)C2=CC=CC=C2
How it was run: as §1

alisertib = compound: COc1cc(Nc2ncc3c(n2)-c2ccc(Cl)cc2C(c2c(F)cccc2OC)=NC3)ccc1C(=O)O [alisertib]
How it was run: as §1

[4] = compound: COc1cc2nc(-c3cc(F)ccc3O)nc(N[C@@H]3CNC[C@H]3C(C)(C)O)c2cc1OC
How it was run: as §1

gefitinib = compound: COc1cc2ncnc(Nc3ccc(F)c(Cl)c3)c2cc1OCCCN1CCOCC1 [gefitinib]
How it was run: as §1

lapatinib = compound: CS(=O)(=O)CCNCc1ccc(-c2ccc3ncnc(Nc4ccc(OCc5cccc(F)c5)c(Cl)c4)c3c2)o1 [lapatinib]
How it was run: as §1

crizotinib = compound: C[C@@H](Oc1cc(-c2cnn(C3CCNCC3)c2)cnc1N)c1c(Cl)ccc(F)c1Cl [crizotinib]
How it was run: as §1

duvelisib = compound: C[C@H](Nc1ncnc2nc[nH]c12)c1cc2cccc(Cl)c2c(=O)n1-c1ccccc1 [duvelisib]
How it was run: as §1

tozasertib = compound: Cc1cc(Nc2cc(N3CCN(C)CC3)nc(Sc3ccc(NC(=O)C4CC4)cc3)n2)n[nH]1 [tozasertib]
How it was run: as §1

doramapimod = compound: Cc1ccc(-n2nc(C(C)(C)C)cc2NC(=O)Nc2ccc(OCCN3CCOCC3)c3ccccc23)cc1 [doramapimod]
How it was run: as §1

alvocidib = compound: CN1CC[C@H](c2c(O)cc(O)c3c(=O)cc(-c4ccccc4Cl)oc23)[C@H](O)C1 [alvocidib]
How it was run: as §1

[5] = compound: C[C@H](C1=CC=C(C=C1)C(=O)NC2=C3C=CNC3=NC=C2)N
How it was run: as §1

gandotinib = compound: Cc1cc(Nc2cc(CN3CCOCC3)c3nc(C)c(Cc4ccc(Cl)cc4F)n3n2)n[nH]1 [gandotinib]
How it was run: as §1

[6] = compound: Cc1cccc(CC(=O)N2CCc3c2ccc(-c2cn(C)c4ncnc(N)c24)c3F)n1
How it was run: as §1

pictilisib = compound: CS(=O)(=O)N1CCN(Cc2cc3nc(-c4cccc5[nH]ncc45)nc(N4CCOCC4)c3s2)CC1 [pictilisib]
How it was run: as §1

bafetinib = compound: Cc1ccc(NC(=O)c2ccc(CN3CC[C@H](N(C)C)C3)c(C(F)(F)F)c2)cc1Nc1nccc(-c2cncnc2)n1 [bafetinib]
How it was run: as §1

Measured: log2 fold change

TDRD15 (UniProt B5MCY1)
inactive: Tubastatin A -0.06 | [1] 0.016 | defactinib -0.063 | [2] 0.171 | encorafenib 0.171 | [3] 0.003 | alisertib -0.064 | [4] -0.082 | gefitinib -0.075 | lapatinib 0.045 | crizotinib -0.137 | duvelisib 0.047 | tozasertib 0.025 | doramapimod 0.034

TAGLN3 (UniProt Q9UI15)
inactive: alvocidib -0.14 | [1] 0.055 | defactinib -0.111 | encorafenib -0.075 | [3] -0.044 | [4] -0.055 | lapatinib 0.103 | [5] -0.163 | gandotinib 0.265 | tozasertib 0.175 | [6] 0.287

TCN1 (UniProt P20061)
inactive: alvocidib -0.057 | Tubastatin A 0.579 | [1] -0.252 | encorafenib -0.151 | [3] 0.042 | alisertib -0.003 | gefitinib 0.018 | pictilisib 0.198 | crizotinib 0.237 | [5] -0.041 | gandotinib 0.185 | tozasertib -0.064 | doramapimod -0.123 | bafetinib 0.185 | [6] 0.962

TENT4B isoform 5 (UniProt Q8NDF8)
inactive: Tubastatin A -0.098 | [1] -0.031 | alisertib -0.145 | gefitinib -0.228 | pictilisib 0.03 | crizotinib 0.007 | doramapimod -0.053 | bafetinib 0.128

Random excerpt: two entries already listed, in no set order.
TCN1 (UniProt P20061)
inactive: alvocidib -0.057 | Tubastatin A 0.579 | [1] -0.252 | encorafenib -0.151 | [3] 0.042 | alisertib -0.003 | gefitinib 0.018 | pictilisib 0.198 | crizotinib 0.237 | [5] -0.041 | gandotinib 0.185 | tozasertib -0.064 | doramapimod -0.123 | bafetinib 0.185 | [6] 0.962

TAGLN3 (UniProt Q9UI15)
inactive: alvocidib -0.14 | [1] 0.055 | defactinib -0.111 | encorafenib -0.075 | [3] -0.044 | [4] -0.055 | lapatinib 0.103 | [5] -0.163 | gandotinib 0.265 | tozasertib 0.175 | [6] 0.287

Next records follow.

TCEAL1 isoform 2 (UniProt Q15170)
inactive: defactinib 0.025 | [4] 0.119 | lapatinib -0.127 | pictilisib -0.073 | bafetinib -0.021

TCF3 isoform 2 (UniProt P15923)
inactive: Tubastatin A 0.055 | [1] 0.214 | crizotinib -0.048 | doramapimod 0.092

TET2 (UniProt Q6N021)
inactive: [1] -0.003 | [2] 0.046 | encorafenib -0.091 | [3] 0.182 | pictilisib -0.054 | crizotinib 0.056 | duvelisib 0.012 | tozasertib 0.083 | doramapimod -0.39 | bafetinib -0.102

TFPI isoform 2 (UniProt P10646)
inactive: defactinib -0.109 | crizotinib 0.045 | doramapimod -0.121

TASOR2 (UniProt Q5VWN6)
inactive: Tubastatin A 0.102 | [2] -0.057 | encorafenib -0.044 | [3] -0.037 | alisertib -0.017 | gefitinib 0.05 | pictilisib -0.066 | duvelisib -0.11 | tozasertib 0.171 | bafetinib -0.557

TCOF1 isoform 6 (UniProt Q13428)
inactive: Tubastatin A -0.164 | [1] 0.096 | [2] 0.009 | alisertib -0.059 | [4] 0.05 | gefitinib 0.058 | lapatinib -0.007 | crizotinib 0.008 | duvelisib -0.038 | doramapimod -0.096

TFDP2 (UniProt Q14188)
inactive: Tubastatin A -0.218 | [1] 0.093 | defactinib 0.132 | [2] -0.01 | alisertib 0.111 | [4] 0.163 | gefitinib -0.047 | lapatinib -0.194 | pictilisib 0.138 | crizotinib -0.049 | duvelisib 0.085 | doramapimod -0.123 | bafetinib 0.1

TEAD3 (UniProt Q99594)
inactive: Tubastatin A -0.152 | [1] 0.104 | [2] 0.166 | encorafenib 0.036 | [3] 0.322 | crizotinib 0.016 | duvelisib -0.101 | tozasertib 0.078 | doramapimod 0.011

TEAD2 isoform 4 (UniProt Q15562)
inactive: [1] 0.091 | defactinib 0.207 | [2] 0.133 | duvelisib 0.119

TEN1 (UniProt Q86WV5)
inactive: alisertib -0.109 | gefitinib -0.098

TBCA (UniProt E5RHG6)
inactive: Tubastatin A 0.102 | [1] 0.014 | crizotinib -0.114 | doramapimod -0.021

TEAD4 (UniProt Q15561)
inactive: [1] 0.048 | pictilisib -0.011 | bafetinib -0.098

TENT2 (UniProt Q6PIY7)
inactive: [2] -0.059 | duvelisib 0.045

TBCD, A0A0J9YWI5
inactive: encorafenib -0.109 | [3] -0.212 | crizotinib -0.022 | tozasertib -0.187 | doramapimod -0.093

TASOR (UniProt Q9UK61)
inactive: [1] 0.254 | defactinib -0.006 | [2] 0.058 | encorafenib 0.031 | [3] 0 | crizotinib -0.042 | duvelisib 0.048 | tozasertib 0.049 | doramapimod -0.032
